Measured values from article PMC9161932.
No constants are given. Whether binding was seen depends on the method and setting. Binding seen in cells or lysates may run through a third protein. Some binding calls cover weakened binding; strength is not graded here.

Protein sequences, listed by entry. Tags and fused reporters are not part of them.
UniProt Q12905: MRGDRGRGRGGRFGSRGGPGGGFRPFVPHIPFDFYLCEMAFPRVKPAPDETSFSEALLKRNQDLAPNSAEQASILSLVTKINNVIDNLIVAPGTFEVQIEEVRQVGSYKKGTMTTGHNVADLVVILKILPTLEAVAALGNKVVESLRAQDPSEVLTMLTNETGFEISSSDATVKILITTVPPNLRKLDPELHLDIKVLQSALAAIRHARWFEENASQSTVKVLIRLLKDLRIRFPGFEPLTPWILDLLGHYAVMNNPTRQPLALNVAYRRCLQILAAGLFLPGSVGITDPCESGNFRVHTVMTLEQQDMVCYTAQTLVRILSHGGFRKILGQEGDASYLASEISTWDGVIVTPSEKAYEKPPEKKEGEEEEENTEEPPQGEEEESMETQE

Target: T1, Serine hydroxymethyltransferase 2 (SHMT2) (human (endogenous in CAL-27)) (UniProt P34897)
T1 sequence: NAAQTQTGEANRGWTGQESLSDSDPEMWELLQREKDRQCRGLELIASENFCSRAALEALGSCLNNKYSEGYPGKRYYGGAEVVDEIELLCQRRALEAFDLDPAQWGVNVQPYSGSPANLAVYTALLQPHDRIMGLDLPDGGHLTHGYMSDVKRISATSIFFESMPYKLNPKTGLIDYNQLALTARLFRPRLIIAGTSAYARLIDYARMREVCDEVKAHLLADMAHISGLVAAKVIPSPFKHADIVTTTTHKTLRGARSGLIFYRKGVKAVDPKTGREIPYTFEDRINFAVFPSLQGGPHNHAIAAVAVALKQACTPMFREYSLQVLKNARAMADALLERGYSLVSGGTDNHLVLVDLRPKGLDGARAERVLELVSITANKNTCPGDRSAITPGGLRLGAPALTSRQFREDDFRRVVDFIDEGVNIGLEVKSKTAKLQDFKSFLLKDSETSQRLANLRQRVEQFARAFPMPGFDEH
Assay: co-IP; CAL-27 cells lysed on ice for 30 min in RIPA lysis buffer with protease inhibitors; lysate added to protein A agarose-coupled anti-IgG, anti-SHMT2 or anti-ILF2

- binding: binds
Substance: Interleukin enhancer-binding factor 2 (ILF2) (from UniProt Q12905 1-390)
